According to the supplement of paper PMC9744312:
Counter-ions that a name gives are not always drawn. The list shows a part of the results. The data scatter; read single values as rough.

test system: Peyronie's disease tunica albuginea primary fibroblasts; assay: cell viability (DRAQ5 nuclear stain) relative to TGF-beta1-only control; higher = more viable cells; settings: 10 µM; TGF-beta1 10 ng/mL; 72 h

SMILES	cell viability
C=C[C@@H]1C[C@]1(NC(=O)[C@@H]1C[C@@H](Oc2ncc(OC)c3ccc(Cl)cc23)CN1C(=O)[C@@H](NC(=O)OC(C)(C)C)C(C)(C)C)C(=O)NS(=O)(=O)C1CC1 [Asunaprevir]	97.3%
N#Cc1ccc(Oc2ccc3c(c2)COB3O)cc1 [Crisaborole (AN2728)]	105%
CC(N)C12CC3CC(CC(C3)C1)C2 (stereo not drawn) [Rimantadine]	96.8%
CC(N)C12CC3CC(CC(C3)C1)C2 (stereo not drawn) [Rimantadine Hydrochloride]	89.9%
CN(CCOc1ccc(CC2SC(=O)NC2=O)cc1)c1ccccn1 (stereo not drawn) [Rosiglitazone]	85.7%
CN(CCOc1ccc(CC2SC(=O)NC2=O)cc1)c1ccccn1 (stereo not drawn) [Rosiglitazone maleate]	86.5%
CN(CCOc1ccc(CC2SC(=O)NC2=O)cc1)c1ccccn1 (stereo not drawn) [Rosiglitazone HCl]	85.2%
CCCc1nc(C(C)(C)O)c(C(=O)O)n1Cc1ccc(-c2ccccc2-c2nnn[nH]2)cc1 [Olmesartan]	92.7%
O=C(OCc1ccccc1)c1ccccc1 [Benzyl benzoate]	95.6%
OC(CCN1CCCCC1)(c1ccccc1)C1CCCCC1 (stereo not drawn) [Trihexyphenidyl hydrochloride]	83.7%
N=C(N)N/N=C/c1c(Cl)cccc1Cl [Guanabenz Acetate]	92.8%
Cc1ccc2c(Cl)cc(Cl)c(O)c2n1 [Chlorquinaldol]	78.6%
C[C@H](Oc1cc(-c2cnn(C3CCNCC3)c2)cnc1N)c1c(Cl)ccc(F)c1Cl [(S)-crizotinib]	72.9%
CCCCCCCCCC(=O)N[C@H]1[C@H](Oc2c3cc4cc2Oc2ccc(cc2Cl)[C@@H](O[C@@H]2O[C@H](CO)[C@@H](O)[C@H](O)[C@H]2NC(C)=O)[C@@H]2NC(=O)[C@H](NC(=O)[C@@H]4NC(=O)[C@H]4NC(=O)[C@@H](Cc5ccc(c(Cl)c5)O3)NC(=O)[C@H](N)c3ccc(O)c(c3)Oc3cc(O)cc4c3)c3ccc(O)c(c3)-c3c(OC4O[C@H](CO)[C@@H](O)[C@H](O)[C@@H]4O)cc(O)cc3[C@@H](C(=O)O)NC2=O)O[C@H](CO)[C@@H](O)[C@@H]1O (stereo partly drawn) [Teicoplanin]	93.5%
CN(C)CCOC(=O)COc1ccc(Cl)cc1 [Meclofenoxate (Centrophenoxine) HCl]	91%
Brc1c(NC2=NCCN2)ccc2nccnc12 [Brimonidine Tartrate]	91.2%
CC[C@@H]1/C=C(\C)C[C@H](C)C[C@H](OC)[C@H]2O[C@@](O)(C(=O)C(=O)N3CCCC[C@H]3C(=O)O[C@H](/C(C)=C/[C@@H]3CC[C@H](Cl)[C@H](OC)C3)[C@H](C)[C@@H](O)CC1=O)[C@H](C)C[C@@H]2OC [Pimecrolimus]	101%
OC[C@H]1O[C@@H](O[C@@H]2[C@@H](CO)OC(O)(CO)[C@H]2O)[C@H](O)[C@@H](O)[C@H]1O (mixture of isomers) [Lactulose]	86.7%
N[C@@H](C(=O)N[C@@H]1C(=O)N2C(C(=O)O)=C(Cl)CS[C@H]12)c1ccccc1 [Cefaclor]	96.8%

Already shown: entries from further up.
SMILES	cell viability
N#Cc1ccc(Oc2ccc3c(c2)COB3O)cc1 [Crisaborole (AN2728)]	105%
CC(N)C12CC3CC(CC(C3)C1)C2 (stereo not drawn) [Rimantadine]	96.8%
CC(N)C12CC3CC(CC(C3)C1)C2 (stereo not drawn) [Rimantadine Hydrochloride]	89.9%

Next results follow:

SMILES	cell viability
CCCCCCCCN=c1ccn(CCCCCCCCCCn2ccc(=NCCCCCCCC)cc2)cc1 [Octenidine Dihydrochloride]	35.6%
COc1ccc(C(=O)NCc2ccc(OCCN(C)C)cc2)cc1OC [Itopride hydrochloride]	97.5%
CCN(c1cc(-c2ccc(CN3CCOCC3)cc2)cc(C(=O)NCc2c(C)cc(C)[nH]c2=O)c1C)C1CCOCC1 [Tazemetostat (EPZ-6438)]	91.8%
Cn1c([N+](=O)[O-])cnc1COC(N)=O [Ronidazole]	88.8%
CN(C)[C@@H]1C(O)=C(C(N)=O)C(=O)[C@@]2(O)C(O)=C3C(=O)c4c(O)ccc(Cl)c4[C@@H](O)[C@H]3C[C@@H]12 [Demeclocycline HCl]	84.7%
CCC1(c2c[nH]cn2)Cc2ccccc2C1 [Atipamezole]	91%
CCC1(c2c[nH]cn2)Cc2ccccc2C1 [Atipamezole hydrochloride]	97.1%
O=S(=O)(O)CCS [Mesna]	83.1%
CCn1cc(C(=O)O)c(=O)c2cnc(N3CCCC3)nc21 [Piromidic Acid]	96.3%
CCOc1ccccc1OCCN[C@H](C)Cc1ccc(OC)c(S(N)(=O)=O)c1 [Tamsulosin hydrochloride]	89.9%
CCCCCCCCCCCCC[N+](C)(C)Cc1ccccc1 [Benzalkonium chloride]	55.2%
O=C(O)c1cc(-c2ccc(F)cc2F)ccc1O [Diflunisal]	82.4%
CCCCNC(=O)NS(=O)(=O)c1ccc(C)cc1 [Tolbutamide]	96%
CCCS(=O)(=O)Nc1ccc(F)c(C(=O)c2c[nH]c3ncc(-c4ccc(Cl)cc4)cc23)c1F [Vemurafenib (PLX4032, RG7204)]	89%
CCOC(=O)OC(C)OC1=C(C(=O)Nc2ccccn2)N(C)S(=O)(=O)c2ccccc21 (stereo not drawn) [Ampiroxicam]	100%
O=C(Nc1c(Cl)cncc1Cl)c1ccc(OC(F)F)c(OCC2CC2)c1 [Roflumilast]	104%
CC(=O)N[C@H]1[C@H]([C@H](O)[C@H](O)CO)OC(C(=O)O)=C[C@@H]1NC(=N)N [Zanamivir]	94.9%
CCC(=O)O[C@]1(C(=O)CCl)[C@@H](C)C[C@H]2[C@@H]3C[C@H](F)C4=CC(=O)C=C[C@]4(C)[C@@]3(F)[C@@H](O)C[C@@]21C [Halobetasol Propionate]	78%
CC[C@H](C)[C@H](NC(=O)[C@@H]1CCCN1C(=O)CNC(=O)[C@H](Cc1ccccc1)NC(=O)[C@H](CC(N)=O)NC(=O)[C@H](CC(N)=O)NC(=O)[C@H](CO)NC(=O)[C@H](CO)NC(=O)[C@H](Cc1c[nH]cn1)NC(=O)[C@@H](NC(=O)[C@H](CC(C)C)NC(=O)[C@H](Cc1ccccc1)NC(=O)[C@H](CC(N)=O)NC(=O)[C@H](C)NC(=O)[C@H](CC(C)C)NC(=O)[C@H](CCCNC(=N)N)NC(=O)[C@H](CCC(N)=O)NC(=O)[C@@H](NC(=O)[C@H](C)NC(=O)[C@@H]1CSSC[C@H](NC(=O)[C@@H](N)CCCCN)C(=O)N[C@@H](CC(N)=O)C(=O)N[C@@H]([C@@H](C)O)C(=O)N[C@@H](C)C(=O)N[C@@H]([C@@H](C)O)C(=O)N1)[C@@H](C)O)C(C)C)C(=O)N[C@@H](CC(C)C)C(=O)N1CCC[C@H]1C(=O)N1CCC[C@H]1C(=O)N[C@H](C(=O)N[C@@H](CC(N)=O)C(=O)N[C@H](C(=O)NCC(=O)N[C@@H](CO)C(=O)N[C@@H](CC(N)=O)C(=O)N[C@H](C(=O)N[C@@H](Cc1ccc(O)cc1)C(N)=O)[C@@H](C)O)C(C)C)[C@@H](C)O [Pramlintide Acetate]	123%
